For three molecules, binding results are on record in paper doi:10.1101/679480.

Amino acid sequences for entries named in this document (tags omitted).
UniProt Q96GY3: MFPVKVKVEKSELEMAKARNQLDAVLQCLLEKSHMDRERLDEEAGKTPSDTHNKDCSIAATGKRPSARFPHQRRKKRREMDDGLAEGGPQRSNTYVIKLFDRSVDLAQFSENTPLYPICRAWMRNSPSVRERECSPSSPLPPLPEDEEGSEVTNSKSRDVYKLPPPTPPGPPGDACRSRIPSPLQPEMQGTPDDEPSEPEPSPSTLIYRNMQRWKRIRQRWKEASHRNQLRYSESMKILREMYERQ
UniProt P10244: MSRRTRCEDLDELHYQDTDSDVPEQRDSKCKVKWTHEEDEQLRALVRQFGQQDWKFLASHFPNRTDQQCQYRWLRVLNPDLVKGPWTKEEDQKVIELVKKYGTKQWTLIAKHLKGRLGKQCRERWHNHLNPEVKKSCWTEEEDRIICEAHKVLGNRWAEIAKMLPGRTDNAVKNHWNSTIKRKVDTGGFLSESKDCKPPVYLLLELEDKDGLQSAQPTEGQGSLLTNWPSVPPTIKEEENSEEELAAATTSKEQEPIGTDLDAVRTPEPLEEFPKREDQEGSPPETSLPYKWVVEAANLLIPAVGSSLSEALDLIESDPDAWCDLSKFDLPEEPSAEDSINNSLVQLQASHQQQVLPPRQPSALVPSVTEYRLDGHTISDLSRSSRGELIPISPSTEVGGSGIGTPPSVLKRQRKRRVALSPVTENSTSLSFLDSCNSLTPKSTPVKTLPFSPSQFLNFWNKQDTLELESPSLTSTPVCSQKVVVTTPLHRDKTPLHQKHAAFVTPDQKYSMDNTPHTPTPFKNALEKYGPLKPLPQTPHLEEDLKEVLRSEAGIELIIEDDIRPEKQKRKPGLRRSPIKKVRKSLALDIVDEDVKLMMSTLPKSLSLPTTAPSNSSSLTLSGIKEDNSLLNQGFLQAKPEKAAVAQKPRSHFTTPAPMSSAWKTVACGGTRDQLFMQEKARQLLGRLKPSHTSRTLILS
UniProt Q08999: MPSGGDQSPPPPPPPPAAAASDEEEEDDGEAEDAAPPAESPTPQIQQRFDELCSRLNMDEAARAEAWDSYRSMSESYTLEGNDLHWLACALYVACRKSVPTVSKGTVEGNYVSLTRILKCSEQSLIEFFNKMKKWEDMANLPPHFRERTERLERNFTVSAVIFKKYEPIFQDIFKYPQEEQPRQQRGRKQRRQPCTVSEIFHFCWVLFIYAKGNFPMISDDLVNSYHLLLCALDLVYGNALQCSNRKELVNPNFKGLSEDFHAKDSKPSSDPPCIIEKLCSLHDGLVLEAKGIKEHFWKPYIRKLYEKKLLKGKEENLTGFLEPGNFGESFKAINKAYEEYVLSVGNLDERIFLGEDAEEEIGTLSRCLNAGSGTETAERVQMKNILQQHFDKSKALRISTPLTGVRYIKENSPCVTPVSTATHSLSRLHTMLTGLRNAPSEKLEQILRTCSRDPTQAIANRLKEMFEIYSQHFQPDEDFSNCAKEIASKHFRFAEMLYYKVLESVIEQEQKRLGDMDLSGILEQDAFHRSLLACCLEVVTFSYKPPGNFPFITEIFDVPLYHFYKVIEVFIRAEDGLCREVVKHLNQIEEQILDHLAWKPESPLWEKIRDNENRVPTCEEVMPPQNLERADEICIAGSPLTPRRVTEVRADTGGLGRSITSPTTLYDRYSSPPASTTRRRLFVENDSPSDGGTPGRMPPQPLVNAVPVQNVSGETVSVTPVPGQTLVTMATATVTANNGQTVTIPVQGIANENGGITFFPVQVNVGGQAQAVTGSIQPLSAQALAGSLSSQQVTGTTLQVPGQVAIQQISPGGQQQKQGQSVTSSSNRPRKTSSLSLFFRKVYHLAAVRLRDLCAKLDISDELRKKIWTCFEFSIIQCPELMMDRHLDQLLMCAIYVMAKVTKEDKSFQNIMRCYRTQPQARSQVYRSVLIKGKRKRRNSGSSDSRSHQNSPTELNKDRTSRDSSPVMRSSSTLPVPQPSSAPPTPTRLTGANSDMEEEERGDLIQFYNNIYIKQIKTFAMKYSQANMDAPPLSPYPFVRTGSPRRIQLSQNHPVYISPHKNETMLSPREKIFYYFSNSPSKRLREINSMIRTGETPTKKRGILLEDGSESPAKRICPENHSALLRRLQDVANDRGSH

Where two headings read alike, the source gives them in different places. These are yes or no findings as the source states them, for the method shown. In cells and extracts the contact can be indirect. Some binding calls cover weakened binding; strength is not graded here.

The target of experiment [1] is LIN37 (human (endogenous in meningioma tumor tissue)) (UniProt Q96GY3). The experiment is described as follows: co-IP.
The target is the same in experiment [2]. The experiment is described as follows: co-IP. This is another data set of the same source.

As for MYBL2 (from UniProt P10244 1-700), in experiment [1], the binding entry was “binds”.
Same read-out and setting: for RBL2 (from UniProt Q08999 1-1139) the value was “binds”.

B1: FOXM1 (protein, UniProt Q08050 1-763)
chain: MKTSPRRPLILKRRRLPLPVQNAPSETSEEEPKRSPAQQESNQAEASKEVAESNSCKFPAGIKIINHPTMPNTQVVAIPNNANIHSIITALTAKGKESGSSGPNKFILISCGGAPTQPPGLRPQTQTSYDAKRTEVTLETLGPKPAARDVNLPRPPGALCEQKRETCADGEAAGCTINNSLSNIQWLRKMSSDGLGSRSIKQEMEEKENCHLEQRQVKVEEPSRPSASWQNSVSERPPYSYMAMIQFAINSTERKRMTLKDIYTWIEDHFPYFKHIAKPGWKNSIRHNLSLHDMFVRETSANGKVSFWTIHPSANRYLTLDQVFKPLDPGSPQLPEHLESQQKRPNPELRRNMTIKTELPLGARRKMKPLLPRVSSYLVPIQFPVNQSLVLQPSVKVPLPLAASLMSSELARHSKRVRIAPKVLLAEEGIAPLSSAGPGKEEKLLFGEGFSPLLPVQTIKEEEIQPGEEMPHLARPIKVESPPLEEWPSPAPSFKEESSHSWEDSSQSPTPRPKKSYSGLRSPTRCVSEMLVIQHRERRERSRSRRKQHLLPPCVDEPELLFSEGPSTSRWAAELPFPADSSDPASQLSYSQEVGGPFKTPIKETLPISSTPSKSVLPRTPESWRLTPPAKVGGLDFSPVQTSQGASDPLPDPLGLMDLSTTPLQSAPPLESPQRLLSSEPLDLISVPFGNSSPSDIDVPKPGSPEPQVSGLAANRSLTEGLVLDTMNDSLSKILLDISFPGLDEDPLGPDNINWSQFIPELQ
For the molecule B1, the binding entry in experiment [2] was “binds”.
